The record followed here is patent US10172835B2, “Anticancer agent composition” (J-Pharma Co., Ltd., priority 2014, dated 2019).

The data set has as its system CHOP. In words: Western blot of CHOP protein levels, KO99L cells. It counts as cell-based, murine. The settings on record: COMPOUND-JP 10.0 μM; Erw 2.5 units/ml. The method, then:
Cell extracts were prepared using a cell lysis buffer (50 mM HEPES, pH 7.4, 150 mM NaCl, 20 mM EDTA, 100 mM NaF, 10 mM Na3VO4, 0.5% nonyl phenoxypolyethoxylethanol (NP40) supplemented with a cocktail of protease inhibitors. After SDS-PAGE separation and transfer to nitrocellulose immunoblotting was performed using the following antibodies against: Akt (Cell Signaling Technologies, #9272), CHOP (#2895), cleaved caspase 3 (#9664), c-Myc (#9402), eIF2a (#9721), 4EBP1 (#9644), LC3A/B (#12741), PARP (#9542), pJnk (T183/Y185) (#9251), pSer235-236-S6RP (#4856), pSer473-Akt (#9271), pSer65-4EBP1 (#9451) and S6RP (#2217); Bax (Sigma-Aldrich, B8429); PUMA (Abcam, ab54288); Bak (Millipore, 06536); ATF4 (Santa Cruz Biotechnologies, sc200), GADD34 (sc8327), Hsp60 (sc-1722), Hsp90 (sc-13119) and XBP1 (sc-7160); ATF6 (Imgenex, IMG-273).
On the technique in general: In western blotting, separated proteins are transferred to a membrane and probed.

`Nc1cc(COc2c(Cl)cc(C[C@H](N)C(=O)O)cc2Cl)c2oc(-c3ccccc3)nc2c1` [COMPOUND-JP, O-(5-amino-2-phenylbenzoxazole-7-yl)methyl-3,5-dichloro-L-tyrosine]: the “time of maximal CHOP expression” value was determined as 6.0 h.

B1: Erw: enzyme that can degrade extracellular asparagine, with higher glutaminase activity (protein, UniProt P06608 22-348, looked up)
L-asparaginase: ADKLPNIVILATGGTIAGSAATGTQTTGYKAGALGVDTLINAVPEVKKLANVKGEQFSNMASENMTGDVVLKLSQRVNELLARDDVDGVVITHGTDTVEESAYFLHLTVKSDKPVVFVAAMRPATAISADGPMNLLEAVRVAGDKQSRGRGVMVVLNDRIGSARYITKTNASTLDTFKANEEGYLGVIIGNRIYYQNRIDKLHTTRSVFDVRGLTSLPKVDILYGYQDDPEYLYDAAIQHGVKGIVYAGMGAGSVSVRGIAGMRKAMEKGVVVIRSTRTGNGIVPPDEELPGLVSDSLNPAHARILLMLALTRTSDPKVIQEYFHTY
For the molecule B1, the “time of maximal CHOP expression” value came to 6.0 h.
